Measurements reported in article PMC10248797.
Results are given in words; binding and its absence hold for the method and conditions named. Some entries that bind do so weakly or less than the wild type. Sequences can lack the tags named with a protein. Each block holds one binder with its values, some of them ahead of it.

Key:
[1] = molecular target: T1, Halo-tagged full-length Ndel1 with C-terminal 6X-His tag (UniProt Q9GZM8); experiment: pull-down; as a2 but at 36 mM KCl; data not shown; both purified
T1 sequence: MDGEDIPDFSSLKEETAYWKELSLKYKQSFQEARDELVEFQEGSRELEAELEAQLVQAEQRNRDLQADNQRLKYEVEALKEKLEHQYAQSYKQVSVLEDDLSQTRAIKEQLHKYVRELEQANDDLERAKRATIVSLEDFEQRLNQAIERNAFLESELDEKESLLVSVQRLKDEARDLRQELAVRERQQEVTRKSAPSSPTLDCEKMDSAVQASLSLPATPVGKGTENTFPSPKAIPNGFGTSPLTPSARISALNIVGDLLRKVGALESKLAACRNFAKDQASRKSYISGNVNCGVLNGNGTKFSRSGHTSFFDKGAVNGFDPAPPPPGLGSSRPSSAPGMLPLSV

[2] = molecular target: T2, Halo-Lis1 (UniProt P43034); experiment: pull-down; 50 nM Halo-Lis1 on HaloTag beads; 5 nM dynein with 100 nM WT Ndel1 without HaloTag; depletion of dynein from solution; both purified
T2 sequence: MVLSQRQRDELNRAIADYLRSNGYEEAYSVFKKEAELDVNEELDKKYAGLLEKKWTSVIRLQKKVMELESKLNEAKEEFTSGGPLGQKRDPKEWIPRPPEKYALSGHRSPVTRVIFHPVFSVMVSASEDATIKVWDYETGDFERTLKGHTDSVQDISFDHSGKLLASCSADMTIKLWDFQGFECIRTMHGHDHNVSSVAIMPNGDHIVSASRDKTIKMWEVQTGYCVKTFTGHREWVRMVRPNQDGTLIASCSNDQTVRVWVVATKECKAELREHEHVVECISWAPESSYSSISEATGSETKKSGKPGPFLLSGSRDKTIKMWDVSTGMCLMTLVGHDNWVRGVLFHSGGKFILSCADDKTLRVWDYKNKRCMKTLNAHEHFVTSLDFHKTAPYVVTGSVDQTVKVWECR

[3] = molecular target: T2, Halo-Lis1; experiment: pull-down; 50 nM Halo-Lis1 on HaloTag beads; 5 nM dynein with 100 nM E48A Ndel1; depletion of dynein from solution; both purified

binding [1]: binds
B1: Lis1 (in solution) (protein, UniProt P43034 1-410)
chain: MVLSQRQRDELNRAIADYLRSNGYEEAYSVFKKEAELDVNEELDKKYAGLLEKKWTSVIRLQKKVMELESKLNEAKEEFTSGGPLGQKRDPKEWIPRPPEKYALSGHRSPVTRVIFHPVFSVMVSASEDATIKVWDYETGDFERTLKGHTDSVQDISFDHSGKLLASCSADMTIKLWDFQGFECIRTMHGHDHNVSSVAIMPNGDHIVSASRDKTIKMWEVQTGYCVKTFTGHREWVRMVRPNQDGTLIASCSNDQTVRVWVVATKECKAELREHEHVVECISWAPESSYSSISEATGSETKKSGKPGPFLLSGSRDKTIKMWDVSTGMCLMTLVGHDNWVRGVLFHSGGKFILSCADDKTLRVWDYKNKRCMKTLNAHEHFVTSLDFHKTAPYVVTGSVDQTVKVWECR

binding [2]: binds
B2: tagless FL-Ndel1 (i.e., no HaloTag) (protein, UniProt Q9GZM8 1-345)
chain: MDGEDIPDFSSLKEETAYWKELSLKYKQSFQEARDELVEFQEGSRELEAELEAQLVQAEQRNRDLQADNQRLKYEVEALKEKLEHQYAQSYKQVSVLEDDLSQTRAIKEQLHKYVRELEQANDDLERAKRATIVSLEDFEQRLNQAIERNAFLESELDEKESLLVSVQRLKDEARDLRQELAVRERQQEVTRKSAPSSPTLDCEKMDSAVQASLSLPATPVGKGTENTFPSPKAIPNGFGTSPLTPSARISALNIVGDLLRKVGALESKLAACRNFAKDQASRKSYISGNVNCGVLNGNGTKFSRSGHTSFFDKGAVNGFDPAPPPPGLGSSRPSSAPGMLPLSV

binding [3]: binds
B3: FL-Ndel1^E48A without HaloTag (protein, UniProt Q9GZM8 1-345)
chain: MDGEDIPDFSSLKEETAYWKELSLKYKQSFQEARDELVEFQEGSRELAAELEAQLVQAEQRNRDLQADNQRLKYEVEALKEKLEHQYAQSYKQVSVLEDDLSQTRAIKEQLHKYVRELEQANDDLERAKRATIVSLEDFEQRLNQAIERNAFLESELDEKESLLVSVQRLKDEARDLRQELAVRERQQEVTRKSAPSSPTLDCEKMDSAVQASLSLPATPVGKGTENTFPSPKAIPNGFGTSPLTPSARISALNIVGDLLRKVGALESKLAACRNFAKDQASRKSYISGNVNCGVLNGNGTKFSRSGHTSFFDKGAVNGFDPAPPPPGLGSSRPSSAPGMLPLSV
